The whole screen tested about 340,000 compounds, of which about 6,200 (1.8%) were called active. The shares of active, inactive and inconclusive entries below differ from those in the screen. Calls follow the shape of the dose curve; as a rule, active = well fitted activation curve with a large enough effect; inconclusive = small, poorly fitted or top-dose-only effect; inactive = no such curve, though single readings can be large or run the other way. Potencies beside an inconclusive call are fits to weak or partial responses and may not hold up.
test: A quantitative high throughput screen for small molecules that induce DNA re-replication in SW480 colon adenocarcinoma cells.; also: nearly all actives have a fitted effect of over 55% in size; as to re-replication activation: % of control where 0% means no effect; details: Hoechst DNA content imaging, 48 h; re-replication activation: at 46.1 µM (top of the series) unless noted
Procedure, shortened: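 DNA re-replication was detected as more nuclei of elevated Hoechst intensity after 48 hr exposure to compound (23 nL pinned per well of 250 cells).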
Potency is read from the fitted curve at half-maximal effect.

Compound | Potency | re-replication activation
Cc1ccc(CN(N=Nc2nonc2N)c2nonc2N)c(C)c1 | inconclusive: 29.1 µM [activator, single point] | 
O=C(Nc1cccc(Cl)c1)Nc1cc(S(=O)(=O)N2CCCCC2)ccc1Cl | inconclusive: 18.4 µM [activator, single point] | 
CC(C)(C)OC(=O)N(Cc1ccccc1)Cc1ccccc1OCc1cccc(NC(=O)C2CC2)c1 | inconclusive: 23.1 µM [activator, partial curve, poor fit] | 
COc1ccc(C2/C=C\CN(S(=O)(=O)c3ccc4ccccc4c3)CC(=O)N2Cc2ccc(F)cc2)cc1 (stereo unspecified) | inconclusive: 29.1 µM [activator, single point] | 
Cc1noc(C)c1S(=O)(=O)Nc1ccccc1Oc1ccccc1 | inactive | 
Cc1ccc(Nc2nc(N)nc(CSC(=S)N3CCN(c4ccccc4)CC3)n2)cc1 | inactive | 
CCCc1ccc(S(=O)(=O)N2CCN(C(C)C(=O)NCc3ccc(OC)cc3)CC2)cc1 (stereo unspecified) | inactive | 
O=C(O)c1cccc(CN2C(=O)S/C(=C/c3cccc([N+](=O)[O-])c3)C2=O)c1 | inconclusive: 18.4 µM [activator, single point] | 
COc1cc(C(=O)Nc2scc(-c3ccc(C)cc3)c2C(=O)O)cc(OC)c1OC |  | inconclusive: 141% [activator]
CCCc1c(C(=O)N/N=C/c2cccc(OCc3ccc(F)cc3)c2)nnn1-c1nonc1N | inconclusive: 29.1 µM [activator, single point] | 
COC(=O)C1=C(C)N(CCc2ccc(OC)cc2)C(=O)C1 | inconclusive: 32.6 µM [activator, partial curve, poor fit] | 
CCOC(=O)c1ccc(NC(=S)NN)cc1 | inconclusive: 18.4 µM [activator, single point] | 
CC(C)Cc1nc(N2CCN(C(=O)c3ccco3)CC2)c(C#N)c2c1CCCC2 | inactive | 
CCc1ccc(OCC(=O)Nc2ccc3[nH]ncc3c2)cc1 | inconclusive: 6.51 µM [activator, single point] | 
COc1ccc(NC(=O)NC(C)c2ccc3c(c2)OCO3)cc1OC (stereo unspecified) | inactive | 
Cc1ccc2sc(-c3ccc(NC(=O)/C=C\C(=O)O)cc3)nc2c1 | inconclusive: 32.6 µM [activator, partial curve, poor fit] | 
Cc1ccc(C(C(=O)NC2CCCC2)N(C(=O)Cc2cccs2)c2ccc3c(c2)OCCO3)cc1 (stereo unspecified) | inconclusive: 29.1 µM [activator, single point] | 
COc1cccc(N=Nc2ccc3cccnc3c2O)c1 | inactive | 
CCC(C)(C)C1CCC(=NNc2nc3ccccc3[nH]2)CC1 (stereo unspecified) | inconclusive: 2.59 µM [activator, partial curve, poor fit] | 
CC(OC(=O)CCOc1ccccc1)C(=O)Nc1ccc(Cl)cn1 (stereo unspecified) | inconclusive: 23.1 µM [activator, single point] | 
O=C(COC(=O)c1cccs1)Nc1cccc(S(=O)(=O)N2CCCCC2)c1 | inactive | 
CCCN(CC(=O)Nc1ccccc1C)C(=O)CC(NC(=O)c1ccccc1)c1ccccc1 (stereo unspecified) | inconclusive: 11.6 µM [activator, single point] | 

Look-ups from above.
Entry of Cc1ccc(C(C(=O)NC2CCCC2)N(C(=O)Cc2cccs2)c2ccc3c(c2)OCCO3)cc1 (stereo unspecified) under Potency: inconclusive: 29.1 µM [activator, single point]
Entry of COc1ccc(NC(=O)NC(C)c2ccc3c(c2)OCO3)cc1OC (stereo unspecified) under Potency: inactive
Entry of COc1ccc(C2/C=C\CN(S(=O)(=O)c3ccc4ccccc4c3)CC(=O)N2Cc2ccc(F)cc2)cc1 (stereo unspecified) under Potency: inconclusive: 29.1 µM [activator, single point]

Later entries:

Compound | Potency | re-replication activation
O=C(NCC(c1cccs1)N1CCOCC1)c1cnc(Cl)c(Cl)c1 (stereo unspecified) | inconclusive: 20.6 µM [activator, single point] | 
COc1cccc(/C=C/C(=O)c2ccc3c(c2)OCO3)c1OC | inconclusive: 18.4 µM [activator, single point] | 
O=C(NC(=S)NCCc1ccccc1)c1ccccc1 | inconclusive: 25.9 µM [activator, single point] | 
COc1ccccc1N1CCN(C(=S)Nc2cccc(C)c2)CC1 | inconclusive: 18.4 µM [activator, single point] | 
CN(C(=O)c1ccccc1C(=O)OCC(=O)Nc1ccc(S(N)(=O)=O)cc1)c1ccccc1 | inconclusive: 29.1 µM [activator, single point] | 
O=C(Nc1nnc(C2=COCCO2)o1)c1ccc([N+](=O)[O-])s1 | inconclusive: 29.1 µM [activator, single point] | 
O=C(O)CC(NC(=O)CCc1ccccc1)c1ccc(Cl)cc1 (stereo unspecified) | inactive | 
CC(C)CCCCCCNC(=S)Nc1ccc(S(=O)(=O)N2CCOCC2)cc1 | inconclusive: 18.4 µM [activator, single point] | 
CN(C)c1ccc(/C=C/c2ccncc2)cc1 | inconclusive: 3.98 µM [activator, partial curve, poor fit] | 
COC(=O)c1[nH]c2cc(C)ccc2c1NC(=O)CN1CCN(c2ccccc2OC)CC1 | inactive | 
N#Cc1ccccc1OCCCN1CCC(Cc2ccccc2)CC1 | inconclusive: 4.11 µM [activator, full curve] | 
CCOC(=O)c1[nH]c2ccccc2c1NC(=O)NC1CCCCC1 |  | inconclusive: 46.8% [activator]
Cc1cccc(N2CCN(C(=O)C34CC5CC(CC(C5)C3)C4)CC2)c1C | inactive | 
Cc1c(C(=O)N/N=C/c2cccnc2)sc(N)c1C#N | inconclusive: 6.51 µM [activator, partial curve, poor fit] | 
O=C(N=C1SC2CS(=O)(=O)CC2N1c1ccccc1Cl)C1CCCO1 (stereo unspecified) | inconclusive: 29.1 µM [activator, single point] | 
CCOC(=O)C1=NN(C(=O)c2ccc(OC)cc2)C(O)(c2ccc(Cl)cc2)C1 (stereo unspecified) | inconclusive: 18.4 µM [activator, single point] | 
Cc1cc(N2CCN(C)CC2)nc2ccc(NC(=S)N3CCN(c4ccc(F)cc4)CC3)cc12 | inconclusive: 18.4 µM [activator, single point] | 
Nc1nc(CCl)nc(Nc2ccccc2)n1 | active: 6.51 µM | 
O=C1/C(=C/c2cccs2)CCc2ccccc21 | inconclusive: 29.1 µM [activator, single point] | 
COc1ccc(-c2cn[nH]c2-c2ccc(OCc3ccc([N+](=O)[O-])cc3)cc2O)cc1 | inconclusive: 29.1 µM [activator, single point] | 
CCc1nc(SCC(=O)Nc2cccc3ccccc23)[nH]c(=O)c1C | inactive | 
CN(C)S(=O)(=O)c1ccc(N2CCCC2)c(C(=O)N2CCC(C(N)=O)CC2)c1 | inactive | 

Compound | Potency | re-replication activation
CCN1C(=O)CSC1=Nc1ccc(Cl)c(Cl)c1 | inconclusive: 23.1 µM [activator, single point] | 
CCN(CC)S(=O)(=O)c1cc(NC(=O)COC(=O)CCC(=O)c2ccc(F)cc2)ccc1C | inconclusive: 29.1 µM [activator, single point] | 
Cc1ccccc1-n1c(=O)c(C#N)cc2c(=O)n3ccccc3nc21 | inconclusive: 6.51 µM [activator, single point] | 
COc1cc(/C=C2/C(=O)N(c3ccc(C)c(C)c3)N=C2C)cc([N+](=O)[O-])c1O | inconclusive: 29.1 µM [activator, partial curve, poor fit] | 
Cc1nc2ncccn2c1-c1csc(Nc2ccc(N(C)C)cc2)n1 | inconclusive: 0.103 µM [activator, full curve, poor fit] | 
COc1ccc(OC)c(NC(=O)C(=S)NC2CCCCC2)c1 | inconclusive: 0.259 µM [activator, single point] | 
Nc1ncnc2c1ncn2[C@@H]1O[C@H](CNCc2c(OCc3ccccc3F)ccc3ccccc23)[C@@H](O)[C@H]1O | inconclusive: 1.64 µM [activator, full curve, poor fit] | 
Cc1c(Br)c(C(=O)N2CCc3ccccc32)nn1C | inconclusive: 20.6 µM [activator, partial curve, poor fit] | 
O=C(CC1C(=O)Nc2ccccc2N1CC(=O)N1CCCC1)Nc1ccc(Br)cc1 (stereo unspecified) | inconclusive: 29.1 µM [activator, single point] | 
COc1ccc(C(=O)NCCc2ccc(C(F)(F)F)cc2)cc1S(=O)(=O)N1CCOCC1 | inactive | 
Cc1cc(C(=O)CN2c3cccc4cccc(c34)S2(=O)=O)c(C)n1C | active: 3.26 µM | 
CC(C)[C@H](NC(=O)N1c2ccccc2NC(=O)[C@@H]1C(C)C)C(=O)N[C@H](C(=O)O)c1ccccc1 | inconclusive: 3.66 µM [activator, partial curve, poor fit] | 
Cc1cc(C)nc(Nc2ccc(C(=O)O)cc2)n1 | inactive | 
CC1CCc2sc(C(=O)OCC(=O)NCc3ccc(F)cc3)cc2C1 (stereo unspecified) | inconclusive: 29.1 µM [activator, single point] | 
O=C(CCNC(=O)c1ccc(Br)cc1)NCc1cccnc1 | inconclusive: 1.84 µM [activator, single point] | 
CC(/C=C/c1ccco1)=N\NC(=O)c1cc(Cl)ccc1O | inconclusive: 20.6 µM [activator, single point] | 
Cc1cccc(-c2nnc(NC(=O)c3ccc(Cl)cc3)o2)c1 | inconclusive: 16.4 µM [activator, single point] | 
O=C(NCc1ccccn1)c1cc(-c2ccccc2)nc2ccccc12 | inconclusive: 29.1 µM [activator, single point] | 
CCOC(=O)C(NCc1ccccc1OC)(NC(=O)CC)C(F)(F)F (stereo unspecified) | inconclusive: 0.731 µM [activator, full curve, poor fit] | 
Cc1n[nH]c(=S)n1/N=C/c1ccccc1OCc1ccc(Cl)cc1 | inconclusive: 29.1 µM [activator, single point] | 
COc1cc(OC)c(C2SCCCS2)cc1OC | inactive | 
CN1CCc2nc(SCc3ccc(Cl)cc3)c(C#N)c(-c3cccs3)c2C1 | inconclusive: 29.1 µM [activator, single point] | 
